Patent publication US20120015885A1
No constants are given. Whether binding was seen depends on the method and setting. Some binding calls cover weakened binding; strength is not graded here.

The chains behind the UniProt entries cited, without tags or fusion partners.
UniProt P11275: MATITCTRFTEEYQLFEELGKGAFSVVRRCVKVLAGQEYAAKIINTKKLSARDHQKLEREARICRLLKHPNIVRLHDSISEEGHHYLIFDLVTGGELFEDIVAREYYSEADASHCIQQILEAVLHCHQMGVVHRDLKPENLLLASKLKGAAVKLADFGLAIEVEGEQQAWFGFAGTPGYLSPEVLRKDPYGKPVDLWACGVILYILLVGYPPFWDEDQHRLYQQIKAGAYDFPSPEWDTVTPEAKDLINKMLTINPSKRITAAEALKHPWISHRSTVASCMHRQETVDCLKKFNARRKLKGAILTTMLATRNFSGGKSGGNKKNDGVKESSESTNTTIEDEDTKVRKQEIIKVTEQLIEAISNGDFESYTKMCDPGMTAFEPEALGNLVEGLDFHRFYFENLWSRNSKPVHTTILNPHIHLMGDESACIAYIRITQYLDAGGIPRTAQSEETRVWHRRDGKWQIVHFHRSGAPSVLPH

Target: calcium/calmodulin (CaM)-dependent protein kinase II (CaMKII) (UniProt P11275)
Assay: T-site mutants in kinase assays; block of NR2B binding

binding: binds
Binder: KRPPKLGQIGRSKRVVIEDDR [CN21]
